The test system of one test is HEK293 WT BDD-FVIII-Gluc. Briefly: secreted FVIII-Gluc luciferase Z-score vs DMSO control; higher = more FVIII-Gluc secretion. The note with it: 5 µM; 24 h.
In test [1] the test system is HEK293 p.N1941S BDD-FVIII-Gluc. The test is described as above. The note with it: 5 µM; 24 h.

Counter-ions that a name gives are not always drawn. This is one part of the list. Baselines shift from plate to plate; read single values as rough.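 Wild-type or misfolding-prone missense mutant B-domain-deleted factor VIII, fused to Gaussia luciferase, is stably expressed in HEK293 lines. Each score is (mean triplicate-well luminescence minus DMSO mean) divided by DMSO standard deviation. Hits score at least 2; lower scores could stem from decreased secretion or poorer cell viability.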

In the case of `OC(CCN1CCCCC1)(c1ccccc1)c1ccccc1` [Pridinol Methanesulfonate], the “secreted FVIII-Gluc luciferase Z-score” value was inactive: -0.894 with HEK293 WT BDD-FVIII-Gluc and inactive: 0.928 in test [1].

For `C#C[C@]1(OC(C)=O)CC[C@H]2[C@@H]3CCC4=C[C@@H](OC(C)=O)CC[C@@H]4[C@H]3CC[C@@]21C` [Ethynodiol diacetate], the “secreted FVIII-Gluc luciferase Z-score” value was inactive: -1.68 with HEK293 WT BDD-FVIII-Gluc and inactive: -2.3 in test [1].

For `CN(C)C/C=C/C(=O)Nc1cc2c(Nc3ccc(F)c(Cl)c3)ncnc2cc1O[C@H]1CCOC1` [Afatinib (BIBW2992)], the figures for the “secreted FVIII-Gluc luciferase Z-score” value (in the test with HEK293 WT BDD-FVIII-Gluc; in test [1]) were inactive: -3.88 and inactive: -13.4, respectively.

Regarding `CCCCOc1ccc(OCCCN2CCOCC2)cc1` [Pramoxine HCl], the “secreted FVIII-Gluc luciferase Z-score” value in the test on HEK293 WT BDD-FVIII-Gluc is inactive: 0.668; in test [1], inactive: 1.34.

`CC(C)CN(C[C@@H](O)[C@H](Cc1ccccc1)NC(=O)O[C@H]1CO[C@H]2OCC[C@H]21)S(=O)(=O)c1ccc(N)cc1` [Darunavir Ethanolate (Prezista)]: the figures for the “secreted FVIII-Gluc luciferase Z-score” value (in the test on HEK293 WT BDD-FVIII-Gluc; in test [1]) were inactive: -2.35 and inactive: 0.0529, respectively.

For the molecule `N=C(N)NC(=O)c1nc(Cl)c(N)nc1N` [Amiloride hydrochloride dihydrate], the “secreted FVIII-Gluc luciferase Z-score” value in the test with HEK293 WT BDD-FVIII-Gluc was inactive: -0.644; in test [1] it was inactive: -1.65.

For `O=C(O)c1cc(-c2ccccc2)nc2ccccc12` [Cinchophen], the entries for the “secreted FVIII-Gluc luciferase Z-score” value (in the test with HEK293 WT BDD-FVIII-Gluc; in test [1]) were inactive: 0.616 and inactive: 0.664, respectively.

Regarding `Nc1nc(Cl)nc2c1ncn2[C@H]1C[C@H](O)[C@@H](CO)O1` [Cladribine], the figures for the “secreted FVIII-Gluc luciferase Z-score” value (in the test with HEK293 WT BDD-FVIII-Gluc; in test [1]) were inactive: -2.76 and inactive: -9, respectively.

As for `O=C(NC[C@H]1CN(c2ccc(N3CCOCC3=O)cc2)C(=O)O1)c1ccc(Cl)s1` [Rivaroxaban (Xarelto)], the “secreted FVIII-Gluc luciferase Z-score” value in the test on HEK293 WT BDD-FVIII-Gluc was active: 3.52; in test [1] it was inactive: 0.733.

Regarding `Cc1nc(Nc2ncc(C(=O)Nc3c(C)cccc3Cl)s2)cc(N2CCN(CCO)CC2)n1`, the entries for the “secreted FVIII-Gluc luciferase Z-score” value (in the test on HEK293 WT BDD-FVIII-Gluc; in test [1]) were inactive: -4.55 and inactive: -13.3, respectively.

For the molecule `C=C1/C(=C\C=C2/CCC[C@]3(C)[C@@H]([C@H](C)CCCC(C)C)CC[C@@H]23)C[C@@H](O)C[C@@H]1O` [Alfacalcidol], the “secreted FVIII-Gluc luciferase Z-score” value is inactive: -2.46 in the test with HEK293 WT BDD-FVIII-Gluc and inactive: -0.147 in test [1].

In the case of `Cc1ccc(S(=O)(=O)NC(=O)NN2CC3CCCC3C2)cc1` (stereo not given) [Gliclazide (Diamicron)], the “secreted FVIII-Gluc luciferase Z-score” value with HEK293 WT BDD-FVIII-Gluc is inactive: -0.8; in test [1], inactive: -0.904.

For `CC(C(=O)O)c1ccc2c(c1)[nH]c1ccc(Cl)cc12` (stereo not given) [Carprofen], the “secreted FVIII-Gluc luciferase Z-score” value was inactive: 0.121 in the test with HEK293 WT BDD-FVIII-Gluc and inactive: -0.256 in test [1].

As for `O=C(O)C1=CO[C@@H](O[C@@H]2O[C@H](CO)[C@@H](O)[C@H](O)[C@H]2O)[C@@H]2C(CO)=CC[C@H]12` [Geniposidic acid], the “secreted FVIII-Gluc luciferase Z-score” value with HEK293 WT BDD-FVIII-Gluc was inactive: 0.899; in test [1], inactive: -0.0303.

Regarding `N#CC(c1ccc(Cl)cc1)c1c(Cl)cc(-n2ncc(=O)[nH]c2=O)cc1Cl` (stereo not given) [Diclazuril], the “secreted FVIII-Gluc luciferase Z-score” value in the test on HEK293 WT BDD-FVIII-Gluc is inactive: -0.341; in test [1], inactive: -0.58.

In the case of `CS(=O)(=O)CCNCc1ccc(-c2ccc3ncnc(Nc4ccc(OCc5cccc(F)c5)c(Cl)c4)c3c2)o1` [Lapatinib Ditosylate (Tykerb)], the “secreted FVIII-Gluc luciferase Z-score” value is inactive: -0.667 in the test on HEK293 WT BDD-FVIII-Gluc and inactive: -5.67 in test [1].

For `C[C@@H](O[C@H]1OCCN(Cc2nn(P(=O)(O)O)c(=O)[nH]2)[C@H]1c1ccc(F)cc1)c1cc(C(F)(F)F)cc(C(F)(F)F)c1` [Fosaprepitant dimeglumine], the figures for the “secreted FVIII-Gluc luciferase Z-score” value (in the test on HEK293 WT BDD-FVIII-Gluc; in test [1]) were inactive: 0.00975 and inactive: -0.569, respectively.

As for `CCn1cc(C(=O)O)c(=O)c2cnc(N3CCCC3)nc21` [Piromidic Acid], the “secreted FVIII-Gluc luciferase Z-score” value was inactive: -0.866 in the test on HEK293 WT BDD-FVIII-Gluc and inactive: 1.49 in test [1].

`OC[C@@H](O)[C@@H](O)[C@H](O)[C@H](O)CO` [D-Mannitol (Osmitrol)]: the “secreted FVIII-Gluc luciferase Z-score” value was inactive: 0.49 with HEK293 WT BDD-FVIII-Gluc and inactive: -0.793 in test [1].

Take `C[N+](C)(C)CC(O)CC(=O)[O-]` (racemic) [DL-Carnitine hydrochloride]: the “secreted FVIII-Gluc luciferase Z-score” value in the test with HEK293 WT BDD-FVIII-Gluc was inactive: -0.702; in test [1] it was inactive: -1.33.

As for `COc1ccc(CC(C)NCC(O)c2ccc(O)c(NC=O)c2)cc1` (stereo not given) [Formoterol hemifumarate], the “secreted FVIII-Gluc luciferase Z-score” value was inactive: -1.3 with HEK293 WT BDD-FVIII-Gluc and active: 2.04 in test [1].

Regarding `Clc1ccc2c(c1)CCc1cccnc1C2=C1CCNCC1` [Desloratadine], the “secreted FVIII-Gluc luciferase Z-score” value with HEK293 WT BDD-FVIII-Gluc was inactive: -1.03; in test [1] it was inactive: -3.32.

`CN(C)C(=O)C(CCN1CCC(O)(c2ccc(Cl)cc2)CC1)(c1ccccc1)c1ccccc1` [Loperamide hydrochloride]: the results for the “secreted FVIII-Gluc luciferase Z-score” value (in the test on HEK293 WT BDD-FVIII-Gluc; in test [1]) were inactive: -1.48 and inactive: -2.33, respectively.

For `Cc1cccc(C)c1OCC(C)N` (stereo not given) [Mexiletine HCl], the results for the “secreted FVIII-Gluc luciferase Z-score” value (in the test with HEK293 WT BDD-FVIII-Gluc; in test [1]) were inactive: -1.45 and inactive: 0.726, respectively.

Regarding `CC1Cc2ccccc2N1NC(=O)c1ccc(Cl)c(S(N)(=O)=O)c1` (stereo not given) [Indapamide (Lozol)], the figures for the “secreted FVIII-Gluc luciferase Z-score” value (in the test with HEK293 WT BDD-FVIII-Gluc; in test [1]) were inactive: -4.82 and inactive: 0.195, respectively.

The record behind these values is the supplement of paper PMC12024529.
